Measured data: PubChem BioAssay AID1259254 (NCATS, 2017)

- Test: 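Genome-wide screen for genes that prevent DNA re-replication in cancer cells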 (primary screen)
- Cell system: human HCT116 colorectal cancer cells
- Reagent: single siRNA against human genes
- Timing: 3 days
- Detection: 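Imaged Hoechst DNA stain sorts each cell into a cycle phase by DNA amount; per plate, G2 fraction set to 0% for non-targeting and 100% for GMNN siRNA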
- Direction: G2 robust z-score and G2 cells, % of GMNN control: higher = more G2 cells, more excess DNA replication
- Hit rule: 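An siRNA counts as active if its G2 robust z-score lies at least 5 MADs above the screen median; here such calls match roughly 38% of GMNN control or more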
In all, the deposit lists about 59,000 reagents; this is a part drawn at random. About 1,550 of all reagents (2.6%) count as active. 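G2 share is only a proxy for re-replication; each gene was hit by three separate siRNAs, and active genes were retested.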 The numbers tell different reagents against one gene apart. Further read-outs or replicates are left out here. The record does not give: the amount of reagent.

LNX2 #1 | G2 robust z-score: 0.249; G2 cells, % of GMNN control: 4.72; activity call: inactive
LNX2 #2 | G2 robust z-score: -0.359; G2 cells, % of GMNN control: 0.439; activity call: inactive
LNX2 #3 | G2 robust z-score: -0.154; G2 cells, % of GMNN control: 1.89; activity call: inactive
FGF20 #1 | G2 robust z-score: -0.071; G2 cells, % of GMNN control: 2.47; activity call: inactive
FGF20 #2 | G2 robust z-score: 4.83; G2 cells, % of GMNN control: 37; activity call: inactive
FGF20 #3 | G2 robust z-score: 0.55; G2 cells, % of GMNN control: 6.83; activity call: inactive
HTRA1 #1 | G2 robust z-score: -0.547; G2 cells, % of GMNN control: -0.881; activity call: inactive
HTRA1 #2 | G2 robust z-score: 4.95; G2 cells, % of GMNN control: 37.8; activity call: inactive
HTRA1 #3 | G2 robust z-score: -0.00523; G2 cells, % of GMNN control: 2.93; activity call: inactive
PCDHB12 #1 | G2 robust z-score: -0.267; G2 cells, % of GMNN control: 1.09; activity call: inactive
PCDHB12 #2 | G2 robust z-score: -0.837; G2 cells, % of GMNN control: -2.92; activity call: inactive
PCDHB12 #3 | G2 robust z-score: 2.77; G2 cells, % of GMNN control: 22.4; activity call: inactive
MROH3P #1 | G2 robust z-score: 0.0709; G2 cells, % of GMNN control: 3.47; activity call: inactive
MROH3P #2 | G2 robust z-score: -0.464; G2 cells, % of GMNN control: -0.294; activity call: inactive
MROH3P #3 | G2 robust z-score: 4.66; G2 cells, % of GMNN control: 35.8; activity call: inactive
MROH3P #4 | G2 robust z-score: -0.0804; G2 cells, % of GMNN control: 2.4; activity call: inactive
MROH3P #5 | G2 robust z-score: -0.444; G2 cells, % of GMNN control: -0.154; activity call: inactive
MROH3P #6 | G2 robust z-score: -0.825; G2 cells, % of GMNN control: -2.84; activity call: inactive

2 of these entries, reformatted:
gene	reagent	G2 robust z-score	G2 cells, % of GMNN control	activity call
PCDHB12	1	-0.267	1.09	inactive
PCDHB12	2	-0.837	-2.92	inactive
